Results as given in publication doi:10.1101/2023.09.08.556779, “Molecular model of a bacterial flagellar motor in situ reveals a “parts-list” of protein adaptations to increase torque” (bioRxiv, 2024).

Molecular target: T1, C-terminal FLAG-tagged PflB (C. jejuni 81–176)
T1 sequence: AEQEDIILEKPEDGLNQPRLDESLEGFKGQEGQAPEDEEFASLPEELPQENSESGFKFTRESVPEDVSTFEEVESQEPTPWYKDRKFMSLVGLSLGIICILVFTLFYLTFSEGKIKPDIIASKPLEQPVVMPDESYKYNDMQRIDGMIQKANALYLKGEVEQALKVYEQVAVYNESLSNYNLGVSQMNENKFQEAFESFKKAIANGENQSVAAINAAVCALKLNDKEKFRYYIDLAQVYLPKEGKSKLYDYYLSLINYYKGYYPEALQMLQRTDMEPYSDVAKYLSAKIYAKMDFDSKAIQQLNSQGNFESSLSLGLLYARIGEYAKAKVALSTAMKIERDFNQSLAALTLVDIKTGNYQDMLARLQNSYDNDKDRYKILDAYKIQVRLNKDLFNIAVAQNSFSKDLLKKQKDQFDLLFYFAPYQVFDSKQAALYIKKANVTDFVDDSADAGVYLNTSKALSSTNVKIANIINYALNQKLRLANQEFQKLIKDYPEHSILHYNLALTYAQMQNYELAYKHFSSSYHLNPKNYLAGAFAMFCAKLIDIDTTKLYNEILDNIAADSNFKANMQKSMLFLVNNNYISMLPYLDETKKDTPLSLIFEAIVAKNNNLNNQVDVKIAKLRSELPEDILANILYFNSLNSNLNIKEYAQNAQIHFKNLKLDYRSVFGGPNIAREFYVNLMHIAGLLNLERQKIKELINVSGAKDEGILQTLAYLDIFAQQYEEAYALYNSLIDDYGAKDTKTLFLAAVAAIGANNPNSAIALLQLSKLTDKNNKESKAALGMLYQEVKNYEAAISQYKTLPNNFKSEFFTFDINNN
Assay: affinity purification with mass spectrometry; C. jejuni 81–176 ΔpflA or ΔpflB expressing FLAG-tagged PflA or PflB; cells crosslinked with 0.1% formaldehyde, osmotic lysis, α-FLAG M2 affinity resin, LC-MS/MS; FLAG-tag alone as negative control

Substance: FliL (from UniProt A0A0H3PIF6)
- binding: binds

Results are given in words; binding and its absence hold for the method and conditions named. In cells and extracts the contact can be indirect. These calls come from enrichment with a bait or labelling near it, and not all partners need be listed. Where a sequence is shown, tags or fusion partners need not be part of it.
